From publication PMC10511320
For at least one entry, the source does not settle the construct or the ends of the probe. Weaker means in comparison with the reference protein, sequence or condition of that experiment.

Sequences of proteins named here, by UniProt entry; tags and fusion partners are left off.
UniProt Q9BQ15, whole entry W55A/F78A: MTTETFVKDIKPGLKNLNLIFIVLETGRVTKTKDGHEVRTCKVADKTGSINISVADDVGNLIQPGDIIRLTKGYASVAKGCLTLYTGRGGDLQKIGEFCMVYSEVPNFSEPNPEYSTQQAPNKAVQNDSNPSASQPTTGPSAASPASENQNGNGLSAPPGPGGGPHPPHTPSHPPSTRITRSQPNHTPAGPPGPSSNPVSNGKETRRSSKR

Target: SSB1 W55A/F78A (human) (UniProt Q9BQ15)
Experiment: EMSA
Conditions: described as defective in binding ssDNA; EMSA: 100 nM Cy3 probe, 20 mM Tris-HCl pH 7.5, 50 mM NaCl, 5 mM MgCl2, 0.2 mM EDTA, 1 mM DTT, on ice 30 min; 6% native PAGE, 0.5x TBE, cold room; recombinant protein; label: 3' Cy3; single-stranded DNA

“TTTTTTTTTTTTTTTTTTTTTTTTTTTTTTTTTTTTTTTTTTTTTTTT [oligo (dT)48]”: binds more weakly.
